Measured data: PubChem BioAssay AID686938 (Drosophila RNAi Screening Center, 2013)
Aim: 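Knock-downs reducing store-operated calcium influx in Drosophila cells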 (primary screen). System: Drosophila S2R+ cells. Knock-down reagent: long dsRNA against Drosophila genes, about 0.25 µg dsRNA per well, roughly 10,000 cells. Duration: 5 days of knock-down before the calcium assay. Conditions: thapsigargin (SERCA pump blocker) to empty calcium stores; entry signal taken 4 min after adding it. Measurement: 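Per-well fluo-4 fluorescence in two replicates, unnormalised, measured in resting cells and 4 min after store depletion by the SERCA blocker thapsigargin; ratio of the two present in few wells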. Scale: calcium entry signal: higher = stronger calcium signal after store depletion; entry to resting ratio: higher = more calcium entry relative to resting level; resting calcium signal: higher = higher resting calcium signal. Active means: 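Called when the plate z-score of the entry-to-rest ratio, mean of duplicates, falls below −3; wells with low overall dye signal (Fmax z below −2) or more than five off-targets excluded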. Calls: active = strongly reduced calcium entry; inactive = no strong reduction.
The screen tested about 23,000 reagents; below is a random part of those that have a named target and a result. Of all reagents, 75 (0.33%) are marked active. 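Raw plate signals without normalisation; calls rest on plate z-scores that were not deposited; ratio present for only 364 wells.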 Unmarked entries are inactive. The numbers tell different reagents against one gene apart. Reagent sequences are not shown. The record does not give: the dose of the treatment.

target	dsRNA no.	calcium entry signal, replicate 1 (fluorescence units)	calcium entry signal, replicate 2 (fluorescence units)	entry to resting ratio	resting calcium signal, replicate 1 (fluorescence units)	resting calcium signal, replicate 2 (fluorescence units)
Eip75B (GeneID 39999)	1	4.93e7	3.77e7		2.28e7	1.99e7
Eip75B (GeneID 39999)	2	4.69e7	6.27e7		2.16e7	3.71e7
Eip75B (GeneID 39999)	3	3.30e7	3.45e7		1.71e7	1.61e7
CG5122 (GeneID 34703)	1	5.32e7	4.20e7		2.46e7	1.91e7
CG11504 (GeneID 43557)	1	3.60e7	4.17e7		1.55e7	1.79e7
RpL23 (GeneID 37628)	1	1.59e7	1.73e7		1.19e7	1.12e7
Ras85D (GeneID 41140)	1	2.47e7	2.66e7		1.49e7	1.59e7
Decay (GeneID 42008)	1	3.27e7	5.10e7		1.69e7	5.91e7
CG42807 (GeneID 36511)	1	3.55e7	4.91e7		1.82e7	2.28e7
topi (GeneID 41199)	1	4.02e7	4.27e7		1.95e7	2.47e7
Dlg5 (GeneID 34573)	1	4.30e7			1.91e7	
Hnf4 (GeneID 44544)	1	4.08e7	4.90e7		2.18e7	2.23e7
Hnf4 (GeneID 44544)	2	4.53e7	2.75e7		2.52e7	1.58e7
CG6425 (GeneID 43216)	1	4.26e7	4.37e7		2.01e7	2.01e7
Akr1B (GeneID 39304)	1	3.77e7	3.14e7		2.63e7	1.38e7
Top3beta (GeneID 31565)	1	2.80e7	3.15e7		1.35e7	1.38e7
CG13930 (GeneID 38210)	1	2.93e7	3.85e7		1.53e7	1.54e7
CG8578 (GeneID 32540)	1	4.34e7	4.60e7		2.08e7	2.12e7
CG15638 (GeneID 34768)	1	4.11e7	2.66e7		1.85e7	1.17e7
CG34425 (GeneID 5740837)	1	3.10e7	6.05e7		1.51e7	2.49e7
CG34425 (GeneID 5740837)	2	4.01e7	5.67e7		1.87e7	2.45e7
CG33463 (GeneID 2768844)	1	4.50e7	3.81e7		2.46e7	1.81e7
CG31538 (GeneID 318790)	1	2.90e7	6.32e7		1.52e7	2.85e7
Fer3HCH (GeneID 32260)	1	2.99e7	3.62e7		1.49e7	1.76e7
CG12567 (GeneID 3355094)	1	4.24e7	4.09e7		2.30e7	1.95e7
Pkd2 (GeneID 34651)	1	4.28e7	3.16e7		1.94e7	1.41e7
CG12885 (GeneID 43308)	1	1.95e7	3.68e7		1.11e7	1.63e7
Tsp42Er (GeneID 35629)	1	3.09e7	3.49e7		1.41e7	1.61e7
MAGE (GeneID 40860)	1	4.79e7	4.14e7		2.43e7	1.97e7
Mettl3 (GeneID 42844)	1	6.07e7	6.60e7		2.71e7	2.68e7
Ntan1 (GeneID 37147)	1	5.19e7	5.33e7		2.22e7	2.44e7
Ctr9 (GeneID 38149)	1	2.00e7	1.65e7		1.19e7	1.12e7
CG3191 (GeneID 31209)	1	3.70e7	3.67e7		1.74e7	1.71e7
CG1146 (GeneID 38313)	1	4.53e7	4.07e7		2.00e7	1.97e7
CycT (GeneID 39961)	1	2.08e7 (active)	2.15e7		1.82e7	1.47e7
CycT (GeneID 39961)	2	2.15e7	1.90e7		1.39e7	1.08e7
yuri (GeneID 34894)	1	1.84e7	2.21e7		1.20e7	1.04e7
yuri (GeneID 34894)	2	2.17e7	3.01e7		1.21e7	1.40e7
yuri (GeneID 34894)	3	3.96e7	2.61e7		1.77e7	1.33e7
yuri (GeneID 34894)	4	4.48e7			2.18e7	
CG33062 (GeneID 318840)	1	3.51e7	3.51e7		1.81e7	1.88e7
Megf8 (GeneID 34099)	1	4.23e7			2.54e7	
Vha44 (GeneID 36826)	1	3.78e7	3.84e7		2.33e7	2.33e7
Vha44 (GeneID 36826)	2	5.28e7	4.52e7		2.21e7	2.18e7
haf (GeneID 33339)	1	3.82e7	5.41e7		1.94e7	2.04e7
vig2 (GeneID 43016)	1	3.96e7	3.29e7		2.03e7	1.49e7
CG32512 (GeneID 33085)	1	3.72e7	5.06e7		2.31e7	2.45e7
CG32512 (GeneID 33085)	2	3.14e7	4.39e7		2.10e7	2.20e7
CG32512 (GeneID 33085)	3	3.48e7	3.55e7		2.00e7	1.69e7
CG33309 (GeneID 2768926)	1	2.97e7	4.55e7		1.74e7	2.12e7
Usp39 (GeneID 32881)	1	3.39e7	4.00e7		1.51e7	1.52e7
CG5026 (GeneID 39026)	1	4.35e7	2.74e7		2.89e7	1.23e7
NfI (GeneID 43782)	1	5.80e7	5.71e7	2.2	2.65e7	2.13e7
alpha4GT2 (GeneID 43124)	1	3.47e7	3.79e7		1.62e7	1.66e7
alpha4GT2 (GeneID 43124)	2	4.00e7	6.42e7		2.09e7	2.59e7
Neurl4 (GeneID 39558)	1	2.28e7	3.19e7		1.15e7	2.15e7
CG1806 (GeneID 32163)	1	4.10e7	4.08e7		1.94e7	1.85e7
CG10505 (GeneID 37428)	1	3.29e7	5.34e7		1.74e7	2.31e7

Ordered by “resting calcium signal, replicate 2 (fluorescence units)” (descending): some entries from above
target	dsRNA no.	calcium entry signal, replicate 1 (fluorescence units)	calcium entry signal, replicate 2 (fluorescence units)	entry to resting ratio	resting calcium signal, replicate 1 (fluorescence units)	resting calcium signal, replicate 2 (fluorescence units)
CG5122 (GeneID 34703)	1	5.32e7	4.20e7		2.46e7	1.91e7
CG11504 (GeneID 43557)	1	3.60e7	4.17e7		1.55e7	1.79e7
Eip75B (GeneID 39999)	3	3.30e7	3.45e7		1.71e7	1.61e7
